{"source": "patent US20180087086A1", "about": "“CELL EGRESS AND INVASION INHIBITORS AND THEIR USE AS ANTIPARASITICAL AGENTS” (THE JOHNS HOPKINS UNIVERSITY, priority 2015, published 2018)", "tested_on": "P. berghei sporozoites", "assay": "in vitro sporozoite gliding assay (CSP trails on anti-CSP coated slides)", "type": "cell-based", "conditions": "250 μM; DMSO control more than 90% deposited trails", "experimental": "Compounds selected from the initial hit list were tested using in vitro gliding assays. Five compounds were selected for dose dependent testing on gliding motility based on early crystallographic experiments and first round gliding assay experiments at high concentration.\nP. berghei sporozoites were purified from mosquitoes, incubated with compound, and allowed to glide on anti-CSP coated slides. The CSP-trails deposited by the gliding parasites were detected with anti-CSP antibodies. Trails were quantified for each sporozoite. The ability of each sporozoite to glide was categorized as no gliding (0 trails), and low (<10 trails), medium (10-20 trails), and high gliding (>20 trails).\nIn the DMSO control, more than 90% of sporozoites deposited trails, with >60% classified as medium and high gliding (>10 trails). […] At lower concentrations of compounds, the sporozoites did start to recover their gliding ability. However, for compound 4 at the lowest concentration of compound, less than 60% of the sporozoites were gliding and when they did glide, 90% of those sporozoites were depositing less than 10 trails and upon inspection of multiple fields, they typically could only complete one circular trail. […]", "note": "Some of these results come from one statement about several compounds together."}
{"compound": "CCCCn1c(N)c(C(=O)NCc2ccccc2)c2nc3ccccc3nc21", "note": "[Compound 18, 2-amino-N-benzyl-1-butyl-1H-pyrrolo[2,3-b]quinoxaline-3-carboxamide]", "values": [{"measurement": "total parasite gliding", "value": "less than 10%"}]}
